# Test results as given in the supplement of paper PMC8728848.
# This is one part of the list.
# B1: SP15308F-bth-333-19-333 (Bacteroides thetaiotaomicron) (protein)
# chain: SCNNEWESEQYVQMVSFKAPVNAQGVTPIYIRYKPEGKVTYQLPLIVSGSTMNSKDLNVHVGLDLDTLDVLNVEHFGSRKELFFKPLENKYYEFPETVQIPAGECTSLLPIDFALKDLDQVDKWVLPLAIQSNDPSHNYQANPRKFYRRAMLRISPFNDYSGQYSATAYKVYFKGNEKEAIVPEYHTSYVIDDKTIFFYAGLIDIDRLDRKYYKIKFEFTEEKIDLQTRKLKISSDNEDINLVVKGQPSYTVEEEMDATRPYLKHIYVTINNLEYEFTDYTSVPGYPLEYVVKGSLTMERKINTQIPDEDQAIEW
# Tests used:
# Assay in all cases: glycan array binding signal (z-score within array); higher = stronger binding
# Details in all cases: glycan notation: IUPAC condensed, linker removed
# [1] = target: Neu5Ac(a2-3)Gal(b1-3)[Fuc(a1-4)]GlcNAc
# Method in brief: (§1)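 The binding signal is a Z-score computed within each array and averaged over linkers. Arrays of the same protein sequence at different concentrations or buffers were also averaged together. Data originate from 3228 arrays in the Consortium for Functional Glycomics database, kept only where the protein sequence was available.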
# [2] = target: Neu5Ac(a2-3)Gal(b1-3)[Fuc(a1-4)]GlcNAc(b1-3)Gal(b1-3)[Fuc(a1-4)]GlcNAc
# Method in brief: as §1
# [3] = target: Neu5Ac(a2-3)Gal(b1-3)[Fuc(a1-4)]GlcNAc(b1-3)Gal(b1-4)[Fuc(a1-3)]GlcNAc
# Method in brief: as §1
# [4] = target: Neu5Ac(a2-3)Gal(b1-3)[GlcNAc(b1-6)]GalNAc
# Method in brief: as §1
# [5] = target: Neu5Ac(a2-3)Gal(b1-3)[Neu5Ac(a2-6)]GalNAc
# Method in brief: as §1
# [6] = target: Neu5Ac(a2-3)Gal(b1-3)[Neu5Ac(a2-6)]GlcNAc(b1-3)[Fuc(a1-3)[Gal(b1-4)]GlcNAc(b1-6)]Gal(b1-4)Glc
# Method in brief: as §1
# [7] = target: Neu5Ac(a2-3)Gal(b1-3)]Neu5Ac(a2-3)Gal(b1-4)]GlcNAc
# Method in brief: as §1
# Neu5Ac(a2-3)Gal(b1-4)Glc = target: Neu5Ac(a2-3)Gal(b1-4)Glc
# Method in brief: as §1
# [8] = target: Neu5Ac(a2-3)Gal(b1-4)GlcNAc
# Method in brief: as §1
# [9] = target: Neu5Ac(a2-3)Gal(b1-4)GlcNAc(b1-2)Man
# Method in brief: as §1
# [10] = target: Neu5Ac(a2-3)Gal(b1-4)GlcNAc(b1-2)Man(a1-3)[GlcNAc(b1-4)][Neu5Ac(a2-3)Gal(b1-4)GlcNAc(b1-2)Man(a1-6)]Man(b1-4)GlcNAc(b1-4)GlcNAc
# Method in brief: as §1
# [11] = target: Neu5Ac(a2-3)Gal(b1-4)GlcNAc(b1-2)Man(a1-3)[Neu5Ac(a2-3)Gal(b1-4)GlcNAc(b1-2)Man(a1-6)]Man(b1-4)GlcNAc(b1-4)GlcNAc
# Method in brief: as §1
# [12] = target: Neu5Ac(a2-3)Gal(b1-4)GlcNAc(b1-2)Man(a1-3)[Neu5Ac(a2-3)Gal(b1-4)GlcNAc(b1-2)Man(a1-6)]Man(b1-4)GlcNAc(b1-4)[Fuc(a1-6)]GlcNAc
# Method in brief: as §1
# [13] = target: Neu5Ac(a2-3)Gal(b1-4)GlcNAc(b1-2)Man(a1-3)[Neu5Ac(a2-6)Gal(b1-4)GlcNAc(b1-2)Man(a1-6)]Man(b1-4)GlcNAc(b1-4)GlcNAc
# Method in brief: as §1
# [14] = target: Neu5Ac(a2-3)Gal(b1-4)GlcNAc(b1-2)[Neu5Ac(a2-3)Gal(b1-4)GlcNAc(b1-4)]Man(a1-3)[GlcNAc(b1-4)][Neu5Ac(a2-3)Gal(b1-4)GlcNAc(b1-2)[Neu5Ac(a2-3)Gal(b1-4)GlcNAc(b1-6)]Man(a1-6)]Man(b1-4)GlcNAc(b1-4)GlcNAc
# Method in brief: as §1
# [15] = target: Neu5Ac(a2-3)Gal(b1-4)GlcNAc(b1-2)[Neu5Ac(a2-3)Gal(b1-4)GlcNAc(b1-4)]Man(a1-3)[GlcNAc(b1-4)][Neu5Ac(a2-3)Gal(b1-4)GlcNAc(b1-4)Man(a1-6)]Man(b1-4)GlcNAc(b1-4)GlcNAc
# Method in brief: as §1
# [16] = target: Neu5Ac(a2-3)Gal(b1-4)GlcNAc(b1-2)[Neu5Ac(a2-3)Gal(b1-4)GlcNAc(b1-6)]Man(a1-6)[Neu5Ac(a2-3)Gal(b1-4)GlcNAc(b1-2)Man(a1-3)]Man(b1-4)GlcNAc(b1-4)GlcNAc
# Method in brief: as §1
# [17] = target: Neu5Ac(a2-3)Gal(b1-4)GlcNAc(b1-2)[Neu5Ac(a2-3)Gal(b1-4)GlcNAc(b1-6)]Man(a1-6)[Neu5Ac(a2-3)Gal(b1-4)GlcNAc(b1-2)Man(a1-3)][GlcNAc(b1-4)]Man(b1-4)GlcNAc(b1-4)GlcNAc
# Method in brief: as §1
# [18] = target: Neu5Ac(a2-3)Gal(b1-4)GlcNAc(b1-3)Gal
# Method in brief: as §1
# [19] = target: Neu5Ac(a2-3)Gal(b1-4)GlcNAc(b1-3)Gal(b1-3)GlcNAc
# Method in brief: as §1
# [20] = target: Neu5Ac(a2-3)Gal(b1-4)GlcNAc(b1-3)Gal(b1-4)GlcNAc
# Method in brief: as §1
# [21] = target: Neu5Ac(a2-3)Gal(b1-4)GlcNAc(b1-3)Gal(b1-4)GlcNAc(b1-2)Man(a1-3)[Neu5Ac(a2-3)Gal(b1-4)GlcNAc(b1-3)Gal(b1-4)GlcNAc(b1-2)Man(a1-6)]Man(b1-4)GlcNAc(b1-4)GlcNAc
# Method in brief: as §1
# [22] = target: Neu5Ac(a2-3)Gal(b1-4)GlcNAc(b1-3)Gal(b1-4)GlcNAc(b1-3)Gal(b1-4)GlcNAc
# Method in brief: as §1
# [23] = target: Neu5Ac(a2-3)Gal(b1-4)GlcNAc(b1-3)Gal(b1-4)GlcNAc(b1-3)Gal(b1-4)GlcNAc(b1-2)Man(a1-3)[Neu5Ac(a2-3)Gal(b1-4)GlcNAc(b1-3)Gal(b1-4)GlcNAc(b1-3)Gal(b1-4)GlcNAc(b1-2)Man(a1-6)]GalNAc
# Method in brief: as §1
# [24] = target: Neu5Ac(a2-3)Gal(b1-4)GlcNAc(b1-3)Gal(b1-4)GlcNAc(b1-3)GalNAc
# Method in brief: as §1
# [25] = target: Neu5Ac(a2-3)Gal(b1-4)GlcNAc(b1-3)Gal(b1-4)GlcNAc(b1-3)[Neu5Ac(a2-3)Gal(b1-4)GlcNAc(b1-3)Gal(b1-4)GlcNAc(b1-6)]GalNAc
# Method in brief: as §1
# [26] = target: Neu5Ac(a2-3)Gal(b1-4)GlcNAc(b1-3)Gal(b1-4)GlcNAc(b1-6)[Gal(b1-3)]GalNAc
# Method in brief: as §1
# [27] = target: Neu5Ac(a2-3)Gal(b1-4)GlcNAc(b1-3)Gal(b1-4)[Fuc(a1-3)]GlcNAc
# Method in brief: as §1
# [28] = target: Neu5Ac(a2-3)Gal(b1-4)GlcNAc(b1-3)GalNAc
# Method in brief: as §1
# [29] = target: Neu5Ac(a2-3)Gal(b1-4)GlcNAc(b1-3)[Neu5Ac(a2-3)Gal(b1-4)GlcNAc(b1-6)]GalNAc
# Method in brief: as §1
# [30] = target: Neu5Ac(a2-3)Gal(b1-4)GlcNAc(b1-6)GalNAc
# Method in brief: as §1
# [31] = target: Neu5Ac(a2-3)Gal(b1-4)GlcNAc(b1-6)[Gal(b1-3)]GalNAc
# Method in brief: as §1
# [32] = target: Neu5Ac(a2-3)Gal(b1-4)GlcNAc(b1-6)[Neu5Ac(a2-3)Gal(b1-3)]GalNAc
# Method in brief: as §1
# [33] = target: Neu5Ac(a2-3)Gal(b1-4)GlcNAc6S
# Method in brief: as §1
# [34] = target: Neu5Ac(a2-3)Gal(b1-4)[Fuc(a1-3)]GlcNAc
# Method in brief: as §1
# [35] = target: Neu5Ac(a2-3)Gal(b1-4)[Fuc(a1-3)]GlcNAc(b1-2)Man
# Method in brief: as §1
# [36] = target: Neu5Ac(a2-3)Gal(b1-4)[Fuc(a1-3)]GlcNAc(b1-3)Gal
# Method in brief: as §1
# [37] = target: Neu5Ac(a2-3)Gal(b1-4)[Fuc(a1-3)]GlcNAc(b1-3)Gal(b1-4)GlcNAc
# Method in brief: as §1
# [38] = target: Neu5Ac(a2-3)Gal(b1-4)[Fuc(a1-3)]GlcNAc(b1-3)Gal(b1-4)[Fuc(a1-3)]GlcNAc(b1-3)Gal(b1-4)[Fuc(a1-3)]GlcNAc
# Method in brief: as §1
# [39] = target: Neu5Ac(a2-3)Gal(b1-4)[Fuc(a1-3)]GlcNAc(b1-3)GalNAc
# Method in brief: as §1
# [40] = target: Neu5Ac(a2-3)Gal(b1-4)[Fuc(a1-3)]GlcNAc(b1-6)[Gal(b1-3)]GalNAc
# Method in brief: as §1
# [41] = target: Neu5Ac(a2-3)Gal(b1-4)[Fuc(a1-3)]GlcNAc(b1-6)[Neu5Ac(a2-3)Gal(b1-3)]GalNAc
# Method in brief: as §1
# [42] = target: Neu5Ac(a2-3)Gal(b1-4)[Fuc(a1-3)]GlcNAc6S
# Method in brief: as §1
# [43] = target: Neu5Ac(a2-3)Gal6S(b1-4)GlcNAc
# Method in brief: as §1
# [44] = target: Neu5Ac(a2-3)Gal6S(b1-4)[Fuc(a1-3)]GlcNAc
# Method in brief: as §1
binder,measurement,setting,value
B1,glycan array binding signal (z-score),[1],-0.068
same,glycan array binding signal (z-score),[2],1.04
same,glycan array binding signal (z-score),[3],-0.239
same,glycan array binding signal (z-score),[4],1.33
same,glycan array binding signal (z-score),[5],-0.352
same,glycan array binding signal (z-score),[6],-0.039
same,glycan array binding signal (z-score),[7],-0.935
same,glycan array binding signal (z-score),Neu5Ac(a2-3)Gal(b1-4)Glc,0.589
same,glycan array binding signal (z-score),[8],-0.055
same,glycan array binding signal (z-score),[9],-0.553
same,glycan array binding signal (z-score),[10],0.75
same,glycan array binding signal (z-score),[11],-0.825
same,glycan array binding signal (z-score),[12],-0.251
same,glycan array binding signal (z-score),[13],-1.15
same,glycan array binding signal (z-score),[14],1.69
same,glycan array binding signal (z-score),[15],-0.961
same,glycan array binding signal (z-score),[16],-0.534
same,glycan array binding signal (z-score),[17],-0.036
same,glycan array binding signal (z-score),[18],1.19
same,glycan array binding signal (z-score),[19],0.811
same,glycan array binding signal (z-score),[20],0.018
same,glycan array binding signal (z-score),[21],2.21
same,glycan array binding signal (z-score),[22],0.083
same,glycan array binding signal (z-score),[23],1.32
same,glycan array binding signal (z-score),[24],-0.513
same,glycan array binding signal (z-score),[25],-0.332
same,glycan array binding signal (z-score),[26],-0.196
same,glycan array binding signal (z-score),[27],0.395
same,glycan array binding signal (z-score),[28],-1.44
same,glycan array binding signal (z-score),[29],-0.819
same,glycan array binding signal (z-score),[30],-0.683
same,glycan array binding signal (z-score),[31],0.141
same,glycan array binding signal (z-score),[32],-0.868
same,glycan array binding signal (z-score),[33],1.4
same,glycan array binding signal (z-score),[34],0.346
same,glycan array binding signal (z-score),[35],-0.404
same,glycan array binding signal (z-score),[36],0.474
same,glycan array binding signal (z-score),[37],0.097
same,glycan array binding signal (z-score),[38],1.65
same,glycan array binding signal (z-score),[39],3.76
same,glycan array binding signal (z-score),[40],-0.41
same,glycan array binding signal (z-score),[41],-0.14
same,glycan array binding signal (z-score),[42],1
same,glycan array binding signal (z-score),[43],-0.164
same,glycan array binding signal (z-score),[44],0.085

# Some of the entries so far, tab-delimited:
binder	measurement	setting	value
B1	glycan array binding signal (z-score)	[3]	-0.239
same	glycan array binding signal (z-score)	[7]	-0.935
same	glycan array binding signal (z-score)	[11]	-0.825
